In PubChem BioAssay AID504444 (National Center for Advancing Translational Sciences (NCATS), 2011):
Several values for one entry are separate records, joined by “and”; a condition that tells them apart may be missing. Identical values can stand only once. Among all 360,000 compounds or so, about 7,500 (2.1%) were called active. Inconclusive means that the source gave no clear call. Such entries were picked first, then a sample of the others. The call rests on the fitted dose curve; in most records, active means well fitted inhibition curve with a large enough effect; inconclusive means small, poorly fitted or top-dose-only effect, or effect the other way; inactive means flat fitted curve, though single readings scatter. Potencies of inconclusive entries are doubtful fits and often do not repeat. More than one record can exist for a structure, and the calls need not agree.

Experiment: Nrf2 qHTS screen for inhibitors; further: nearly all actives have a fitted effect of over 60% in size
Conditions: A549 ARE-Fluc reporter, luciferase luminescence, 18-24 h; series mostly up to 46 µM
Outline: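 In this cell-based qHTS, ARE-driven firefly luciferase in A549 cells reports Nrf2 activity; the luminescent signal after BugLite lysis is the measured value, with a prior CellTiter-Fluor read for cell health.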
Potency means the concentration at half of the fitted maximal effect.

Structure (SMILES) | Potency
CCOP(=O)(OCC)C(C#N)=C1SCN(c2ccccc2)CS1 | inconclusive: 23.1 µM [activator, partial curve, poor fit]
Cc1cc(C)nc(N2CCC(C(=O)NNC(=O)c3ccc(Cl)cc3)CC2)n1 | inconclusive: 29.1 µM [falling, single point]
CC1(C)N=C(SCc2ccc(F)cc2)c2ccccc2N1 | inconclusive: 4.11 µM [activator, full curve]
CC(C)CC(=O)Nc1ccc2c(c1)oc1ccccc12 | inconclusive: 5.17 µM [activator, partial curve]
Cc1c(C(=O)OC2CCC(C)CC2)[nH]c2c1C(=O)CCC2 (centres undefined) | inconclusive: 3.26 µM [activator, full curve, poor fit]
CCOc1c(Cl)cc(/C=N/NC(N)=S)cc1OC | active: 20.6 µM
CCOC(=O)c1c(-c2ccccc2)csc1NC(=O)C(C)NCc1ccco1 (centres undefined) | inconclusive: 16.4 µM [falling, single point]
COc1ccc(-c2oc3ccccc3c2C(=O)OCc2ccccc2)cc1 | inconclusive: 20.6 µM [activator, partial curve]
CCOc1ccccc1NC1(c2ccccc2)C(=O)c2ccccc2C1=O | inactive
COCCN(Cc1nc(-c2ccc(-c3ccccc3)cc2)oc1C)C(C)C | inconclusive: 18.4 µM [activator, partial curve]
Clc1ccc(-c2nc3nc4ccccc4nc3n2Cc2ccco2)cc1 | inconclusive: 5.8 µM [activator, partial curve]
CC1CCCCN1CCNC(=O)c1ccc2c(=O)n(Cc3ccc(Cl)cc3)c(=S)[nH]c2c1 (centres undefined) | inactive
CCCc1nnc(NC(=O)c2cc(=O)c3ccccc3o2)s1 | inconclusive: 6.51 µM [activator, partial curve]
CCCCN(C(=O)NC(=O)Nc1nc2ccc(OC)cc2s1)S(C)(=O)=O | inconclusive: 7.31 µM [activator, partial curve, poor fit]
CC(=O)N1c2ccc(S(=O)(=O)NCc3ccccc3Cl)cc2CC1C (centres undefined) | inconclusive: 20.6 µM [falling, single point]
NC(=NCCCCCCN=C(N)/N=C(\N)Nc1ccc(Cl)cc1)/N=C(\N)Nc1ccc(Cl)cc1 | inactive and active: 23.1 µM
CCN(CC(=O)Nc1ccc(OC)cc1)C(=O)c1ccccc1Sc1ccccc1C#N | inactive
COc1ccc(/C=C2\CN(Cc3ccccc3)C/C(=C\c3ccc(OC)cc3)C2=O)cc1 | inactive
CCOP(=O)(O)c1cccc(OCCOCCOc2cccc(P(=O)(O)OCC)c2)c1 | inactive
